In this assay the target is Flag.ADA-2 (Neurospora crassa). Nature of the assay: co-IP; Flag.ADA-2 co-expressed with the Myc-tagged partner in the WT strain; immunoprecipitation with Flag antibody, GammaBind G Sepharose, 2 mg protein extract; cultures in constant light, with or without 3 mM 3-AT; blot for Myc.

Among the data in paper PMC10191625 are binding values, retold here.

These are yes or no findings as the source states them, for the method shown. Binding seen in cells or lysates may run through a third protein. Binding can be weak; no strength is given. Sequences can lack the tags named with a protein.

B1: Myc.CPC-1 (protein, UniProt P11115 1-270)
chain: MFSELDLLDFATFDGGATTEAAFASPANQTYDLSSSVPSSVSNMGTVSPQELLLHEPYLSAPSSTALTALTSPSLFDGSPDFDTFDISPNFGHSDLENPDTWFSLFPDATPLPQAQAQVQTQPQTQTQTEQQTQPLPELVQSVQPTVQPTVEQTVHSVEASPATPSEDLEVLSPGSGHQRRKSSVSPPSGRHSSVAGVGSRRRDKPLPPIIVEDPSDVVAMKRARNTLAARKSRERKAQRLEELEAKIEELIAERDRWKNLALAHGASTE
With B1, the binding result is on record as “binds”.
